Test systems include UBE2F (human); UBE2G2 (human); UBE2H (human); UBE2L6 (human); UBE2O (human); UBE2R2 (human); UBE2T (human); UBE2Z (human); UBE3C (human); UBIAD1 (human).
What all share (assay): protein microarray (ProtoArray v5.0), streptavidin-Alexa Fluor 647
Holding throughout (conditions): 3'-biotin; 20 mM Tris (pH 7.5), 5 mM MgCl2, 100 mM KCl, 0.1% Tween-20, A/T-rich and random oligonucleotide blockers; temperature not stated; high values mean tight binding

Where “and” joins values, the source holds several entries; their conditions need not be identical. Equal entries are not always repeated. This is one part of the list.

On to “GGGAGGCTGAGGCAGG [G4-1 biotinylated (PQS2)]”, for which the binding signal with UBE2F (human) was -0.309 z-score; in the experiment on UBE2G2 (human) it was -0.297 z-score; in the experiment with UBE2H (human), -0.334 z-score; with UBE2L6 (human), -0.35 z-score and -0.283 z-score; in the experiment with UBE2O (human) it was -0.331 z-score; with UBE2R2 (human), -0.252 z-score. For the same sequence, the binding signal was -0.316 z-score with UBE2T (human), -0.33 z-score with UBE2Z (human), -0.344 z-score with UBE3C (human) and -0.304 z-score in the experiment on UBIAD1 (human).

(Values after article PMC5996148.)
